According to patent publication US20160333110A1:
These are yes or no findings as the source states them, for the method shown. Some entries that bind do so weakly or less than the wild type.

Molecular target: T1, hmTROP-2-B chimeric protein (human; mouse), Q8BGV3
T1 chain: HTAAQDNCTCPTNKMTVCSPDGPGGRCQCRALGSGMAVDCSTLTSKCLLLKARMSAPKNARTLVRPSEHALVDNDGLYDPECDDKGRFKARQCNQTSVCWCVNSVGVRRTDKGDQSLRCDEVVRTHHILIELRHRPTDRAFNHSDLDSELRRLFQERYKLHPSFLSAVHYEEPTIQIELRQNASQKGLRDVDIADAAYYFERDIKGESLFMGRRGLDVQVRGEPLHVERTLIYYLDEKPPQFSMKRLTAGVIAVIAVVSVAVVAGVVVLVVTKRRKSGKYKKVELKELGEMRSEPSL
Experiment: flow cytometry (dot plot FL1-H against FL2-H) on HEK293 cells transiently expressing hmTROP-2-B
Settings: remark: other sources report otherwise

B1: anti-hTROP-2 monoclonal antibody clone K5-116-2-1 (antibody, mouse IgG2a, V domains shown)
VH: QVQLQQPGAELVRPGASVKLSCKASGYTFTSYWITWVKQRPGQGLEWIGNIYPSDSYTNYNQKFRDKATLTVDKSSSTAYMQLSSPTSEDSAVYYCSALFDYWGQGTTLTVSS
VL: DILLTQSPAILSVSPGERVSFSCRASQSIGTSIHWYQQRTNGSPRLLIKYASESISGIPSRFSGSGSGTDFILSINSVESEDIADYYCQQSNSWPFTFGSGTKLEIK
  binding: binds
